Structures can show the parent of a compound that is named as a salt. The list shows a part of the results. This data set is noisy: repeats of one test often differ as much as different tests do.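 Screen of FDA-approved drugs, each combined with colistin at one-eighth of its MIC, against a multidrug-resistant mcr-1-positive clinical E. coli isolate; growth read as OD600 after 24 h. Bacteria without drug were the growth control and plain broth the blank. A combination counted as active when OD600 fell below 0.2.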
Test system: Escherichia coli 42 (mcr-1-positive clinical isolate)
Assay: OD600 after 24 h growth with compound plus colistin (absorbance units (OD600)); higher = more bacterial growth (less inhibition)
Settings: first compound 25 µM; colistin concentration 0.5 ug/mL; incubation time 24 h; 37 °C

OD600, inactive:
CC(=O)Oc1cc2c(s1)CCN(C(C(=O)C1CC1)c1ccccc1F)C2 (centres undefined) [Prasugrel] + CCC(C)CCCC(=O)N[C@@H](CCN)C(=O)N[C@H](C(=O)N[C@@H](CCN)C(=O)N[C@H]1CCNC(=O)[C@H]([C@@H](C)O)NC(=O)[C@H](CCN)NC(=O)[C@H](CCN)NC(=O)[C@H](CC(C)C)NC(=O)[C@@H](CC(C)C)NC(=O)[C@H](CCN)NC1=O)[C@@H](C)O [colistin] 0.988
Nc1ncnc2c1ncn2[C@@H]1O[C@H](CO)[C@@H](O)[C@H]1O [Adenosine] + CCC(C)CCCC(=O)N[C@@H](CCN)C(=O)N[C@H](C(=O)N[C@@H](CCN)C(=O)N[C@H]1CCNC(=O)[C@H]([C@@H](C)O)NC(=O)[C@H](CCN)NC(=O)[C@H](CCN)NC(=O)[C@H](CC(C)C)NC(=O)[C@@H](CC(C)C)NC(=O)[C@H](CCN)NC1=O)[C@@H](C)O [colistin] 1.25
O=C1c2ccccc2C(=O)C1c1ccccc1 [Phenindione] + CCC(C)CCCC(=O)N[C@@H](CCN)C(=O)N[C@H](C(=O)N[C@@H](CCN)C(=O)N[C@H]1CCNC(=O)[C@H]([C@@H](C)O)NC(=O)[C@H](CCN)NC(=O)[C@H](CCN)NC(=O)[C@H](CC(C)C)NC(=O)[C@@H](CC(C)C)NC(=O)[C@H](CCN)NC1=O)[C@@H](C)O [colistin] 1.1
CNCCCN1c2ccccc2CCc2ccccc21 [Desipramine hydrochloride] + CCC(C)CCCC(=O)N[C@@H](CCN)C(=O)N[C@H](C(=O)N[C@@H](CCN)C(=O)N[C@H]1CCNC(=O)[C@H]([C@@H](C)O)NC(=O)[C@H](CCN)NC(=O)[C@H](CCN)NC(=O)[C@H](CC(C)C)NC(=O)[C@@H](CC(C)C)NC(=O)[C@H](CCN)NC1=O)[C@@H](C)O [colistin] 0.908
C[C@@H]1CCO[C@H]2Cn3cc(C(=O)NCc4ccc(F)cc4F)c(=O)c(O)c3C(=O)N12 [Dolutegravir sodium] + CCC(C)CCCC(=O)N[C@@H](CCN)C(=O)N[C@H](C(=O)N[C@@H](CCN)C(=O)N[C@H]1CCNC(=O)[C@H]([C@@H](C)O)NC(=O)[C@H](CCN)NC(=O)[C@H](CCN)NC(=O)[C@H](CC(C)C)NC(=O)[C@@H](CC(C)C)NC(=O)[C@H](CCN)NC1=O)[C@@H](C)O [colistin] 1.02
Nc1nc(CC(=O)Nc2ccc(CCNC[C@H](O)c3ccccc3)cc2)cs1 [Mirabegron] + CCC(C)CCCC(=O)N[C@@H](CCN)C(=O)N[C@H](C(=O)N[C@@H](CCN)C(=O)N[C@H]1CCNC(=O)[C@H]([C@@H](C)O)NC(=O)[C@H](CCN)NC(=O)[C@H](CCN)NC(=O)[C@H](CC(C)C)NC(=O)[C@@H](CC(C)C)NC(=O)[C@H](CCN)NC1=O)[C@@H](C)O [colistin] 1.03
CC(C)(C)C(=O)OCOP(=O)(COCCn1cnc2c(N)ncnc21)OCOC(=O)C(C)(C)C [Adefovir dipivoxil] + CCC(C)CCCC(=O)N[C@@H](CCN)C(=O)N[C@H](C(=O)N[C@@H](CCN)C(=O)N[C@H]1CCNC(=O)[C@H]([C@@H](C)O)NC(=O)[C@H](CCN)NC(=O)[C@H](CCN)NC(=O)[C@H](CC(C)C)NC(=O)[C@@H](CC(C)C)NC(=O)[C@H](CCN)NC1=O)[C@@H](C)O [colistin] 1.09
OCCN(CCO)c1nc(N2CCCCC2)c2nc(N(CCO)CCO)nc(N3CCCCC3)c2n1 [Dipyridamole] + CCC(C)CCCC(=O)N[C@@H](CCN)C(=O)N[C@H](C(=O)N[C@@H](CCN)C(=O)N[C@H]1CCNC(=O)[C@H]([C@@H](C)O)NC(=O)[C@H](CCN)NC(=O)[C@H](CCN)NC(=O)[C@H](CC(C)C)NC(=O)[C@@H](CC(C)C)NC(=O)[C@H](CCN)NC1=O)[C@@H](C)O [colistin] 0.858
O=S(=O)(O)CCS [Sodium 2-mercaptoethanesulfonate] + CCC(C)CCCC(=O)N[C@@H](CCN)C(=O)N[C@H](C(=O)N[C@@H](CCN)C(=O)N[C@H]1CCNC(=O)[C@H]([C@@H](C)O)NC(=O)[C@H](CCN)NC(=O)[C@H](CCN)NC(=O)[C@H](CC(C)C)NC(=O)[C@@H](CC(C)C)NC(=O)[C@H](CCN)NC1=O)[C@@H](C)O [colistin] 0.816

2 records picked at random from the list so far:
OD600, inactive:
O=C1c2ccccc2C(=O)C1c1ccccc1 [Phenindione] + CCC(C)CCCC(=O)N[C@@H](CCN)C(=O)N[C@H](C(=O)N[C@@H](CCN)C(=O)N[C@H]1CCNC(=O)[C@H]([C@@H](C)O)NC(=O)[C@H](CCN)NC(=O)[C@H](CCN)NC(=O)[C@H](CC(C)C)NC(=O)[C@@H](CC(C)C)NC(=O)[C@H](CCN)NC1=O)[C@@H](C)O [colistin] 1.1
O=S(=O)(O)CCS [Sodium 2-mercaptoethanesulfonate] + CCC(C)CCCC(=O)N[C@@H](CCN)C(=O)N[C@H](C(=O)N[C@@H](CCN)C(=O)N[C@H]1CCNC(=O)[C@H]([C@@H](C)O)NC(=O)[C@H](CCN)NC(=O)[C@H](CCN)NC(=O)[C@H](CC(C)C)NC(=O)[C@@H](CC(C)C)NC(=O)[C@H](CCN)NC1=O)[C@@H](C)O [colistin] 0.816
